Laboratory results taken from patent US20240270866A1.
These are yes or no findings as the source states them, for the method shown. Some results given as binding are weak or reduced against the parent protein; the word gives no strength.

Sequences of proteins named here, by UniProt entry; tags and fusion partners are left off. A change or cut given only in a name is not applied to a line headed by its entry.
UniProt P78324: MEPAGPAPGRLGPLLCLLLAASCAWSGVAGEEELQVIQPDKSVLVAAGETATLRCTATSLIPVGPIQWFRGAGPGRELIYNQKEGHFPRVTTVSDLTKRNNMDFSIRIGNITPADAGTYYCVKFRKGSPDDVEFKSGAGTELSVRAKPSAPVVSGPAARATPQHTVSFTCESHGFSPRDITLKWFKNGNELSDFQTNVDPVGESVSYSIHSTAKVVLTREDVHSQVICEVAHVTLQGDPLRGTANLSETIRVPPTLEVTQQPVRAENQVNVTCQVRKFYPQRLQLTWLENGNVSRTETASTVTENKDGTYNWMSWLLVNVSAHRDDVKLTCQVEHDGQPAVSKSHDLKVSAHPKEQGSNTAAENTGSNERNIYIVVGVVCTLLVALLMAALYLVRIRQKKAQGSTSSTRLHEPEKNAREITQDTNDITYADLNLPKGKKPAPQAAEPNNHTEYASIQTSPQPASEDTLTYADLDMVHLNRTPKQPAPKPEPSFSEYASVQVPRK

Experiments:
[1] = molecular target: human SIRPA Fc fusion antigen (human) (UniProt P78324); test: ForteBio Fab monovalent
[2] = molecular target: human SIRPA Fc fusion antigen (human) (UniProt P78324); test: ForteBio IgG avid

B1: SA-5-58 Fab (Fab, V domains shown)
VH: EVQLLESGGGLVQPGGSLRLSCAASGFTFDSYAMSWVRQAPGKGLEWVSAISGSGGSTYHADSVKGRFTISRDNSKNTLYLQMNSLRAEDTAVYYCAKDTGISLWSVTPPYFDLWGRGTLVTVSS
VL: DIQLTQSPSSVSASVGDRVTITCRASQDISSWLAWYQQKPGKAPKLLIYAASSLQSGVPSRFSGSGSGTDFTLTISSLQPEDFATYYCQQGYIFPRTFGGGTKVEIK
binding [1]: binds

B2: SA-5-59 Fab (Fab, V domains shown)
VH: EVQLLESGGGLVQPGGSLRLSCAASGFTFDNYAMSWVRQAPGEGLEWVSAVSGSGGSTYYADSVRGRFTISRDNSKNTLYLQMDSLRAEDTAVYYCAKDTGIDFWARTPPYFDLWGRGTLVTVSS
VL: DIQLTQSPSSVSASVGDRVTITCRASQDISSWLAWYQQKPGKAPKLLIYAASSLQSGVPSRFSGSGSGTDFTLTISSLQPEDFATYYCQQGYIFPRTFGGGTKVEIK
binding [1]: binds

B3: SA-5-61 Fab (Fab, V domains shown)
VH: EVQLLESGGGLVQPGGSLKLSCAASGFTFDSYAMSWVRQAPGKGLEWVSAISGSGGSTYYADSVKGRFTISRDNSKNTLYLQMNSLRAEDTAVYYCAKDTGIDFWGQYPPYFDLWGRGTLVTVSS
VL: DIQLTQSPSSVSASVGDRVTITCRASQDISSWLAWYQQKPGKAPKLLIYAASSLQSGVPSRFSGSGSGTDFTLTISSLQPEDFATYYCQQGYIFPRTFGGGTKVEIK
binding [1]: binds

B4: SA-13-71 Fab (Fab, V domains shown)
VH: EVQLLESGGGLVQPGGSLRLSCAASGFTFSEWAMSWVRQAPGKGLEWVSAISGSGGSTYYADSVKGRFTISRDNSKNTLYLQMNSLRAEDTAVYYCARDGRTWGPHFYWGQGTLVTVSS
VL: DIQMTQSPSSLSASVGDRVTITCRASQSISSYLNWYQQKPGKAPKLLIYAASSLQSGVPSRFSGSGSGTDFTLTISSLQPEDFATYYCQQGYIYPPTFGGGTKVEIK
binding [1]: binds

B5: SA-13-71 (antibody, V domains shown)
VH: EVQLLESGGGLVQPGGSLRLSCAASGFTFSEWAMSWVRQAPGKGLEWVSAISGSGGSTYYADSVKGRFTISRDNSKNTLYLQMNSLRAEDTAVYYCARDGRTWGPHFYWGQGTLVTVSS
VL: DIQMTQSPSSLSASVGDRVTITCRASQSISSYLNWYQQKPGKAPKLLIYAASSLQSGVPSRFSGSGSGTDFTLTISSLQPEDFATYYCQQGYIYPPTFGGGTKVEIK
binding [2]: binds

B6: SA-34 Fab (Fab, V domains shown)
VH: QVQLVQSGAEVKKPGASVKVSCKASGYTFTNYGISWVRQAPGQGLEWMGWISAYNGNTNYAQKLQGRVTMTTDTSTSTAYMELRSLRSDDTAVYYCARDVYSSYSYWGQGTLVTVSS
VL: DIQLTQSPSTLSASVGDRVTITCRASQSISSWLAWYQQKPGKAPKLLIYDASSLESGVPSRFSGSGSGTEFTLTISSLQPDDFATYYCQQYELLPPTFGGGTKVEIK
binding [1]: binds
